# Data as given in PubChem BioAssay AID602196 (INSERM, 2012)
# Screen: 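Genes whose knock-down alters cisplatin killing of lung cancer cells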
# System: human A549 lung cancer cells
# Knock-down reagent: siRNA pair against human genes
# Time to read-out: 48 h transfection before cisplatin; time from cisplatin to read-out not stated
# Challenge: cisplatin at a dose killing half of control-siRNA cells; exact dose and duration not given
# Measurement: 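Cisplatin cell death as a shift from the 50% death seen with control siRNA; siRNAs toxic or growth-blocking alone scored 0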
# Scale: two-siRNA summed score (-2 to +2): higher = both siRNAs protect from cisplatin killing; -2 means both sensitise
# Rule for the call: 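Each siRNA scores 0 if harmful alone by LDH or WST-1, otherwise +1 if it reduces and -1 if it increases cisplatin killing; a gene is active when both siRNAs agree (sum +2 or -2)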
# Calls: active = both siRNAs shift cisplatin killing the same way; inactive = no consistent shift, or siRNA harmful alone
# The deposit covers about 23,000 reagents; shown is a part drawn at random. 455 of all reagents (2%) were called active. 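Active includes both protection and sensitisation; some change values fall well beyond the stated -50 to +50 range.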 Entries without a mark were called inactive. The numbers tell different reagents against one gene apart. Not all columns of the deposit are shown. Not given: the amount of reagent.
gene symbol,reagent,two-siRNA summed score (-2 to +2)
HNRNPL (heterogeneous nuclear ribonucleoprotein L),1,1
LRRC31 (leucine rich repeat containing 31),1,-1
ABCC10 (ATP binding cassette subfamily C member 10),1,0
SIPA1L1 (signal induced proliferation associated 1 like 1),1,0
LOC400880,1,0
NYNRIN (NYN domain and retroviral integrase containing),1,0
TBC1D20 (TBC1 domain family member 20),1,0
HPCA (hippocalcin),1,0
FAM20C (FAM20C golgi associated secretory pathway kinase),1,0
LOC344657,1,0
ORMDL3 (ORMDL sphingolipid biosynthesis regulator 3),1,0
KRT10-AS1 (KRT10 antisense RNA 1),1,0
MRPL30 (mitochondrial ribosomal protein L30),1,0
LOC441546,1,0
RNASE7 (ribonuclease A family member 7),1,0
LOC257177,1,1
PRR4 (proline rich 4),1,0
GPX8 (glutathione peroxidase 8 (putative)),1,0
OR2H1 (olfactory receptor family 2 subfamily H member 1),1,-1
ATXN7L2 (ataxin 7 like 2),1,0
KIAA1126,1,0
KPNB1 (karyopherin subunit beta 1),1,0
FAM117B (family with sequence similarity 117 member B),1,0
SKA2 (spindle and kinetochore associated complex subunit 2),1,1
LOC401701,1,0
CCDC196 (coiled-coil domain containing 196),1,0
"SPINT2 (serine peptidase inhibitor, Kunitz type 2)",1,1
KLHL21 (kelch like family member 21),1,-1
ZNF335 (zinc finger protein 335),1,0
CTDP1 (CTD phosphatase 1),1,0
APOA2 (apolipoprotein A2),1,0
NRK (Nik related kinase),1,1
MASTL (microtubule associated serine/threonine kinase like),1,0
CCDC74A (coiled-coil domain containing 74A),1,0
IFNL1 (interferon lambda 1),1,0
MAFG (MAF bZIP transcription factor G),1,-1
GPHA2 (glycoprotein hormone subunit alpha 2),1,0
SVIL (supervillin),1,0
NEDD4 (NEDD4 E3 ubiquitin protein ligase),1,0
STK40 (serine/threonine kinase 40),1,0
MGC16597,1,0
TBC1D4 (TBC1 domain family member 4),1,0
CUEDC2 (CUE domain containing 2),1,0
FCSK (fucose kinase),1,-1
ZNF280A (zinc finger protein 280A),1,1
"SEC24B (SEC24 homolog B, COPII component)",1,0
LDLRAD4 (low density lipoprotein receptor class A domain containing 4),1,0
UBE3B (ubiquitin protein ligase E3B),1,0
STN1 (STN1 subunit of CST complex),1,0
KAT6B (lysine acetyltransferase 6B),1,0
TPSD1 (tryptase delta 1),1,0
KATNAL1 (katanin catalytic subunit A1 like 1),1,0
KATNAL1 (katanin catalytic subunit A1 like 1),2,0
LOC400584,1,0
LOC440575,1,0
TPTEP2 (TPTE pseudogene 2),1,1
WBP1L (WW domain binding protein 1 like),1,-1
LOC402036 (retired record),1,0
CHST1 (carbohydrate sulfotransferase 1),1,0
ME2 (malic enzyme 2),1,0
POR (cytochrome p450 oxidoreductase),1,0
GPR42 (G protein-coupled receptor 42),1,-1
KEL (Kell metallo-endopeptidase (Kell blood group)),1,0
LOC440186,1,0
SAMD9L (sterile alpha motif domain containing 9 like),1,1
NPTXR (neuronal pentraxin receptor),1,0
LOC155060 (AI894139 pseudogene),1,0
LOC440791,1,1
LOC440719,1,0
TCOF1 (treacle ribosome biogenesis factor 1),1,0
NR1H3 (nuclear receptor subfamily 1 group H member 3),1,-1
LOC440334,1,2 (active)
SSTR3 (somatostatin receptor 3),1,1

Part of the list above, reformatted:
{"gene symbol": "SEC24B (SEC24 homolog B, COPII component)", "reagent": 1, "two-siRNA summed score (-2 to +2)": 0}
{"gene symbol": "LDLRAD4 (low density lipoprotein receptor class A domain containing 4)", "reagent": 1, "two-siRNA summed score (-2 to +2)": 0}
{"gene symbol": "UBE3B (ubiquitin protein ligase E3B)", "reagent": 1, "two-siRNA summed score (-2 to +2)": 0}
{"gene symbol": "STN1 (STN1 subunit of CST complex)", "reagent": 1, "two-siRNA summed score (-2 to +2)": 0}
{"gene symbol": "KAT6B (lysine acetyltransferase 6B)", "reagent": 1, "two-siRNA summed score (-2 to +2)": 0}
